Results are given in words; binding and its absence hold for the method and conditions named. Binding seen in cells or lysates may run through a third protein. Some results given as binding are weak or reduced against the parent protein; the word gives no strength. For some of these results: Sequences can lack the tags named with a protein.

Amino acid sequences for entries named in this document (tags omitted).
UniProt P09269: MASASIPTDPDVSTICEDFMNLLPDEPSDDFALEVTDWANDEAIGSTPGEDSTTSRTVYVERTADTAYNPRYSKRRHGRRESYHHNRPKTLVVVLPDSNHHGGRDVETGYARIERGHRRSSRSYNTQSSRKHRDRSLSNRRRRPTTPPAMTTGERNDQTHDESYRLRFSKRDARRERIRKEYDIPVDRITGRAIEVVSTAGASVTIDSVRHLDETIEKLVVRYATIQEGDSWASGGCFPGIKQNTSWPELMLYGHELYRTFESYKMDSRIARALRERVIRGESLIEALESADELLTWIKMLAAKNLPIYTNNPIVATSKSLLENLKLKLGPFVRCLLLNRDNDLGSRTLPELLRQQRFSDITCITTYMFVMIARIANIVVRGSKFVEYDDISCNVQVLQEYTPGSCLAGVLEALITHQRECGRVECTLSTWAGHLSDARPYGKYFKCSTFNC
UniProt Q96SB4: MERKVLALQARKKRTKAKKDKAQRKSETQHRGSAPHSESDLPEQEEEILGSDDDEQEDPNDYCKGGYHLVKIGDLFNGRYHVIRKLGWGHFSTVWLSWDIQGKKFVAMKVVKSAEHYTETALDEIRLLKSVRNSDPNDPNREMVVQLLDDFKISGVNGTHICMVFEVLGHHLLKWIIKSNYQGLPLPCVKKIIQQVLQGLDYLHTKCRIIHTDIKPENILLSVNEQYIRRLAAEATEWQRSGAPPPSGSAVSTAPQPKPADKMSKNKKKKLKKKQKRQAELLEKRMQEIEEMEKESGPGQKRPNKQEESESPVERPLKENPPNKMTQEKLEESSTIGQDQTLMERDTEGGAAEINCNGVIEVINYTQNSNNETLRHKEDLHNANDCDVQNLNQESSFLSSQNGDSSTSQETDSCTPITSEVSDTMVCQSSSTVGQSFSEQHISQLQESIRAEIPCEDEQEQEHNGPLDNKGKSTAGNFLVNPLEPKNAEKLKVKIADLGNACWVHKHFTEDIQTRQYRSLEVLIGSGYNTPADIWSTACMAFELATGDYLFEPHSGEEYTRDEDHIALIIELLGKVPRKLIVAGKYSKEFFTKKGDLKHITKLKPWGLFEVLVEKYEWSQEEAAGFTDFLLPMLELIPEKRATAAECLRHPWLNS
UniProt Q07955: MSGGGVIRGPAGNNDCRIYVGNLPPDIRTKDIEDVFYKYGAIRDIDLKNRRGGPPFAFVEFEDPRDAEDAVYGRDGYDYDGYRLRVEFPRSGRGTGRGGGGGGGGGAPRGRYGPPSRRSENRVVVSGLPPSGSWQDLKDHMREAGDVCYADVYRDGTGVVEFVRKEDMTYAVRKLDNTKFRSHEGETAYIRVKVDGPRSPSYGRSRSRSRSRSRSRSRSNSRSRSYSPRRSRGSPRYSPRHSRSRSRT

Assay [1] addresses IE4 protein of VZV-infected MeWo cells (Varicella-Zoster virus (NIK strain)) (UniProt P09269). Nature of the assay: co-IP; total extracts of pFlag-SRPK1-transfected, VZV-infected MeWo cells; anti-IE4 or anti-Flag on protein A-agarose, overnight at 4°C in immunoprecipitation buffer.
Assay [2] concerns the target IE4-V5 (pcDNA3.1/V5-His-TOPO-IE4) expressed in HeLa cells (Varicella-Zoster virus) (UniProt P09269). As to the kind of experiment: co-IP.
The next assay deals with Flag-SRPK1 (pFlag-SRPK1) (UniProt Q96SB4). Nature of the assay: co-IP; total extracts of pFlag-SRPK1-transfected, VZV-infected MeWo cells; anti-IE4 or anti-Flag on protein A-agarose, overnight at 4°C in immunoprecipitation buffer.
Assay [3] concerns the target T1, HA-9G8 (pCMV-HA-9G8) (human) (UniProt Q16629).
T1 sequence: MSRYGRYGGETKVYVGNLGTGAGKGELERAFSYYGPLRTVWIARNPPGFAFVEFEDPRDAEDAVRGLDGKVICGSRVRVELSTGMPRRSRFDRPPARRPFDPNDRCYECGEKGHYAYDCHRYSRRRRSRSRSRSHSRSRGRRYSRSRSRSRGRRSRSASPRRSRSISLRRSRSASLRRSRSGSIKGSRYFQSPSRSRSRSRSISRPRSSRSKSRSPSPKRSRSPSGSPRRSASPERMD
As to the kind of experiment: co-IP.

The target in assay [4] is HA-ASF/SF2 (pCMV-HA-ASF/SF2) (human) (UniProt Q07955). Nature of the assay: co-IP.
Assay [5] deals with T2, HA-SRp20 (pCMV-HA-SRp20) (human) (UniProt P84103).
T2 sequence: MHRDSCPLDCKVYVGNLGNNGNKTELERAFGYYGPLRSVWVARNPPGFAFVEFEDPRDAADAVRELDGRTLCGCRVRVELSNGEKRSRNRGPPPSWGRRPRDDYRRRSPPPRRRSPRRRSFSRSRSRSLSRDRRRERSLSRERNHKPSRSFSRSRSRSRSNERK
As to the kind of experiment: co-IP.

Another assay concerns the target T3, GST-9G8 (human) (UniProt Q16629).
T3 sequence: T1 sequence
Nature of the assay: pull-down; data not shown; GST fusion protein on Sepharose beads incubated with 35S-labelled in vitro-translated protein, as for the shown radioactive binding assays; only the target purified.

A further assay has as its target T4, GST-SRp20 (human) (UniProt P84103).
T4 sequence: T2 sequence
The description is as above.

Another assay has as its target GST-ASF/SF2 (human) (UniProt Q07955). Nature of the assay: pull-down; GST fusion protein on Sepharose beads incubated with 35S-labelled in vitro-translated protein (reticulocyte lysate); 10 mM Tris-HCl pH 8, 150 mM NaCl, 0.1% NP-40, 1 mM PMSF, overnight at 4°C; autoradiography; only the target purified.

Take “Flag-SRPK1 (pFlag-SRPK1) (from UniProt Q96SB4 1-655) (enzyme)”: the binding result in assay [1] is reported as “binds”.

Regarding “HA-ASF/SF2 (pCMV-HA-ASF/SF2) (from UniProt Q07955 1-248)”, in assay [2], the binding entry is “binds”.

“IE4 protein of VZV-infected MeWo cells (from UniProt P09269 1-452)”: in the assay with Flag-SRPK1 (pFlag-SRPK1), the binding result is given as “binds”.

Turning to “IE4-V5 (pcDNA3.1/V5-His-TOPO-IE4) expressed in HeLa cells (from UniProt P09269 1-452)”, the binding entry in [3], in [4] and in assay [5] was “binds” throughout.

Regarding “IE4-V5, in vitro translated (from UniProt P09269 1-452)”, the binding entry with GST-9G8 (human), in the assay with GST-SRp20 (human) and with GST-ASF/SF2 (human) was “binds” throughout.

On to “endogenous ASF/SF2 of HeLa cells (from UniProt Q07955 1-248)”, for which the binding result in [2] is on record as “binds”.

The values are drawn from article PMC2775670.
